Here are results for 41 compounds from the supplement of paper PMC7830784.

Counter-ions that a name gives are not always drawn. This is one part of the list. This data set is noisy: repeats of one test often differ as much as different tests do. Where only a bound is given, the exact number is not on record here.

This experiment concerns Brugia pahangi adult female. Description: motility inhibition on day 3 relative to DMSO vehicle; higher = more active. As to conditions: 10 µM; 3 days.
In the case of `OCc1ccccc1` [benzyl alcohol], the “motility inhibition on day 3” value was below 0%.

As for `CCC1=C[C@@H]2CN(C1)Cc1c([nH]c3ccccc13)[C@@](C(=O)OC)(c1cc3c(cc1OC)N(C)[C@H]1[C@@](O)(C(=O)OC)[C@H](OC(C)=O)[C@]4(CC)C=CCN5CC[C@]31[C@@H]54)C2` [vinorelbine], the “motility inhibition on day 3” value was below 0%.

Take `CCn1cc(C(=O)O)c(=O)c2cc(F)c(N3CCNC(C)C3)c(F)c21` (stereo unspecified) [lomefloxacin hydrochloride]: the “motility inhibition on day 3” value came to 9.15%.

Turning to `CS(=O)(=O)Nc1ccc([N+](=O)[O-])cc1Oc1ccccc1` [nimesulide], the “motility inhibition on day 3” value came out at 56%.

`CCOC(=O)CCC(=O)O[C@H]1[C@H](O[C@@H]2[C@@H](C)[C@H](O[C@H]3C[C@@](C)(OC)[C@@H](O)[C@H](C)O3)[C@@H](C)C(=O)O[C@H](CC)[C@@](C)(O)[C@H](O)[C@@H](C)C(=O)[C@H](C)C[C@@]2(C)O)O[C@H](C)C[C@@H]1N(C)C` [erythromycin ethylsuccinate]: the “motility inhibition on day 3” value is below 0%.

Turning to `C[C@]12C=CC(=O)C=C1CC[C@@H]1[C@@H]2C(=O)C[C@@]2(C)[C@H]1CC[C@]2(O)C(=O)CO` [prednisone], the “motility inhibition on day 3” value is below 0%.

With `Cc1ccc(/C(=C\CN2CCCC2)c2ccccn2)cc1` [Triprolidine hydrochloride], the “motility inhibition on day 3” value was found to be 20.6%.

As for `CC(C)(O/N=C(\C(=O)N[C@@H]1C(=O)N2C(C(=O)[O-])=C(C[n+]3ccccc3)CS[C@H]12)c1csc(N)n1)C(=O)O` [Ceftazidime], the “motility inhibition on day 3” value came to 9.79%.

Consider `CC(C)(O/N=C(\C(=O)N[C@@H]1C(=O)N2C(C(=O)[O-])=C(C[n+]3ccccc3)CS[C@H]12)c1csc(N)n1)C(=O)O` [ceftazidime], for which the “motility inhibition on day 3” value was 15.3%.

In the case of `CCc1c2c(nc3ccc(OC(=O)N4CCC(N5CCCCC5)CC4)cc13)-c1cc3c(c(=O)n1C2)COC(=O)[C@]3(O)CC` [irinotecan hydrochloride], the “motility inhibition on day 3” value came to 4.81%.

As to `CNCCC=C1c2ccccc2CCc2ccccc21` [Nortriptyline hydrochloride], the “motility inhibition on day 3” value was below 0%.

With `C[C@H]1[C@H](NC(=O)/C(=N\OC(C)(C)C(=O)O)c2csc(N)n2)C(=O)N1S(=O)(=O)O` [aztreonam], the “motility inhibition on day 3” value was 40.3%.

In the case of `CC(=O)Nc1ccc(S(=O)(=O)Nc2ccc([N+](=O)[O-])cc2)cc1` [sulfanitran], the “motility inhibition on day 3” value was below 0%.

On to `Cc1ccc(C(=O)Nc2ccc(S(=O)(=O)O)c3cc(S(=O)(=O)O)cc(S(=O)(=O)O)c23)cc1NC(=O)c1cccc(NC(=O)Nc2cccc(C(=O)Nc3cc(C(=O)Nc4ccc(S(=O)(=O)O)c5cc(S(=O)(=O)O)cc(S(=O)(=O)O)c45)ccc3C)c2)c1` [Suramin hexasodium], for which the “motility inhibition on day 3” value worked out at 45.8%.

Take `CC(=O)Nc1c(I)c(NC(C)=O)c(I)c(C(=O)O)c1I` [diatrizoic acid]: the “motility inhibition on day 3” value was 12%.

As to `CCc1cc(C(N)=S)ccn1` [ethionamide], the “motility inhibition on day 3” value is below 0%.

For `CN1CCN(C(c2ccccc2)c2ccc(Cl)cc2)CC1` (stereo unspecified) [chlorcyclizine hydrochloride], the “motility inhibition on day 3” value is below 0%.

Take `O=C(N/N=C/c1ccc([N+](=O)[O-])o1)c1ccc(O)cc1` [nifuroxazide]: the “motility inhibition on day 3” value is 61.6%.

Take `CN(C)CCCOc1nn(Cc2ccccc2)c2ccccc12` [benzydamine hydrochloride]: the “motility inhibition on day 3” value amounted to 3.66%.

`CCCCC(=O)O[C@]1(C(=O)CO)[C@@H](C)C[C@H]2[C@@H]3CCC4=CC(=O)C=C[C@]4(C)[C@@]3(F)[C@@H](O)C[C@@]21C` [betamethasone valerate]: the “motility inhibition on day 3” value amounted to 14.1%.

For the compound `CC(=O)OCC(=O)[C@@]1(O)CC[C@H]2[C@@H]3CCC4=CC(=O)C=C[C@]4(C)[C@@]3(F)[C@@H](O)C[C@@]21C` [isoflupredone acetate], the “motility inhibition on day 3” value was found to be 25.2%.

Take `COc1cc(C(=O)N2CCOCC2)cc(OC)c1OC` [trimetozine]: the “motility inhibition on day 3” value stood at 4.26%.

As to `CC(=O)OCC(=O)[C@@]1(O)CC[C@H]2[C@@H]3CCC4=CC(=O)CC[C@]4(C)[C@H]3C(=O)C[C@@]21C` [cortisone acetate], the “motility inhibition on day 3” value is below 0%.

For the compound `C#C[C@]1(O)CC[C@H]2[C@@H]3[C@H](C)CC4=C(CCC(=O)C4)[C@H]3CC[C@@]21C` [tibolone], the “motility inhibition on day 3” value was 7.01%.

In the case of `OC[C@@H](O)[C@@H](O)[C@H](O)[C@@H](O)CO` [sorbitol], the “motility inhibition on day 3” value came to 15.8%.

Take `S=C=Nc1ccc(N=C=S)cc1` [bitoscanate]: the “motility inhibition on day 3” value was determined as 6.07%.

For the compound `CC1CCC(NC(=O)N(CCCl)N=O)CC1` (stereo unspecified) [semustine], the “motility inhibition on day 3” value was determined as 17%.

On to `COc1cc2nc(N3CCN(C(=O)C4CCCO4)CC3)nc(N)c2cc1OC` (stereo unspecified) [terazosin hydrochloride], for which the “motility inhibition on day 3” value is 17.5%.

Regarding `Oc1ccc(O)cc1` [hydroquinone], the “motility inhibition on day 3” value was below 0%.

`Cc1cc2nc3ccc(N(C)C)cc3[s+]c2cc1N` [tolonium chloride]: the “motility inhibition on day 3” value was found to be 87.3%.

As to `Nc1ccc(S(=O)(=O)Nc2ccc(Cl)nn2)cc1` [sulfachlorpyridazine], the “motility inhibition on day 3” value came out at 13%.

In the case of `CC(C)OC(=O)CCC/C=C\C[C@@H]1[C@@H](CC[C@@H](O)CCc2ccccc2)[C@H](O)C[C@@H]1O`, the “motility inhibition on day 3” value is below 0%.

With `O=c1[nH]c(=O)n([C@H]2C[C@H](O)[C@@H](CO)O2)cc1F` [floxuridine], the “motility inhibition on day 3” value came out at 15.3%.

As to `Nc1ccc(C(=O)Oc2ccccc2)c(O)c1` [fenamisal], the “motility inhibition on day 3” value worked out at 2.53%.

For the compound `CNNCc1ccc(C(=O)NC(C)C)cc1` [procarbazine hydrochloride], the “motility inhibition on day 3” value amounted to 15.9%.

For the compound `NS(=O)(=O)c1cc2c(cc1Cl)NCNS2(=O)=O` [Hydrochlorothiazide], the “motility inhibition on day 3” value amounted to 5.44%.

Regarding `CN(C)CCC=C1c2ccccc2C=Cc2ccccc21` [cyclobenzaprine hydrochloride], the “motility inhibition on day 3” value amounted to 13.4%.

On to `CCC(=O)O[C@H]1[C@H](O[C@@H]2[C@@H](C)[C@H](O[C@H]3C[C@@](C)(OC)[C@@H](O)[C@H](C)O3)[C@@H](C)C(=O)O[C@H](CC)[C@@](C)(O)[C@H](O)[C@@H](C)C(=O)[C@H](C)C[C@@]2(C)O)O[C@H](C)C[C@@H]1N(C)C` [erythromycin estolate], for which the “motility inhibition on day 3” value is 4.66%.

As for `Nc1ncnc2c1ncn2[C@@H]1O[C@H](COP(=O)(O)O)[C@@H](O)[C@H]1O` [adenosine phosphate], the “motility inhibition on day 3” value came out at 10.6%.

As for `CC1=C(/C=C/C(C)=C/C=C/C(C)=C/C(=O)Nc2ccc(O)cc2)C(C)(C)CCC1` [Fenretinide], the “motility inhibition on day 3” value came to 15.4%.

As to `CC(c1cc2ccccc2s1)N(O)C(N)=O` (stereo unspecified) [zileuton], the “motility inhibition on day 3” value is below 0%.
